Test results from article PMC11603163.
No constants are given. Whether binding was seen depends on the method and setting. In cells and extracts the contact can be indirect. Some entries that bind do so weakly or less than the wild type. For some of these results: Where a sequence is shown, tags or fusion partners need not be part of it.

How the values were obtained:
RDR2-eGFP (Arabidopsis) = biological target: T1, RDR2-eGFP (Arabidopsis) (UniProt O82504); assay: co-IP; anti-GFP IP (Miltenyi anti-GFP kit) from flowers of RDR2-eGFP F1 crosses to NRPD1-3xF variant lines; western blots
T1 sequence: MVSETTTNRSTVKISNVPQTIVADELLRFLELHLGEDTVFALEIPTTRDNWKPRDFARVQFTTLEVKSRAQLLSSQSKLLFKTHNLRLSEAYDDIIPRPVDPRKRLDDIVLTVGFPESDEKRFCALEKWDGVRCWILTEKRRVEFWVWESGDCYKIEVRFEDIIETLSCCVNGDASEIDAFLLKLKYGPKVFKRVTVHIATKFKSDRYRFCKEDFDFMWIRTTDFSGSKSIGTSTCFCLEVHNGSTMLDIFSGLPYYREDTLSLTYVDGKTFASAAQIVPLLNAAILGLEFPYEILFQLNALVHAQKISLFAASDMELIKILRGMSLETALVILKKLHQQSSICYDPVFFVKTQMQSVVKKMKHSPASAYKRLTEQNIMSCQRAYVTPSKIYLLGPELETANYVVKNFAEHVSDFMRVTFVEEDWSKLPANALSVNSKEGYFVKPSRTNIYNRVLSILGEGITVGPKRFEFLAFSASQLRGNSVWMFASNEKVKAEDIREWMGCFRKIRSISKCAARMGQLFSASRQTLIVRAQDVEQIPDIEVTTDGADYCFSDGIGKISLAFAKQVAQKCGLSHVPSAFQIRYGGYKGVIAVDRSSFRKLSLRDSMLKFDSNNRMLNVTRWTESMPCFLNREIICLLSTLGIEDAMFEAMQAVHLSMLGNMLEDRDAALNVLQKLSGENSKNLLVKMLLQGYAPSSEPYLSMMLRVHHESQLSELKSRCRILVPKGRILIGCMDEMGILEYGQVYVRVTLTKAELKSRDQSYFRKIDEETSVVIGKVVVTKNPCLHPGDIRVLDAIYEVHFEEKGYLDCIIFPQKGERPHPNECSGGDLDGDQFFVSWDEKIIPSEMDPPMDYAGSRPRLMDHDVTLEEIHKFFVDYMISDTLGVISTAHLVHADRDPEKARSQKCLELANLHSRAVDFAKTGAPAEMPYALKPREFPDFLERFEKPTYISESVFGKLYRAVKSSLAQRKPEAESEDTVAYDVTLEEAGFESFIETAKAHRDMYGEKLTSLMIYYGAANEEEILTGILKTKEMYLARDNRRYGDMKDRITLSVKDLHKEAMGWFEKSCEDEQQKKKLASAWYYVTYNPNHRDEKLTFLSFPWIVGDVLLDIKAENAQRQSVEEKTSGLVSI

3xHA-CLSY1 (Arabidopsis) = biological target: T2, 3xHA-CLSY1 (Arabidopsis) (UniProt Q9M297); assay: co-IP; anti-HA IP (uMACS HA kit) from flowers of SHH1-3xHA F1 crosses or 3xHA-CLSY1 super-transformed NRPD1-3xF variant lines; western blots
T2 sequence: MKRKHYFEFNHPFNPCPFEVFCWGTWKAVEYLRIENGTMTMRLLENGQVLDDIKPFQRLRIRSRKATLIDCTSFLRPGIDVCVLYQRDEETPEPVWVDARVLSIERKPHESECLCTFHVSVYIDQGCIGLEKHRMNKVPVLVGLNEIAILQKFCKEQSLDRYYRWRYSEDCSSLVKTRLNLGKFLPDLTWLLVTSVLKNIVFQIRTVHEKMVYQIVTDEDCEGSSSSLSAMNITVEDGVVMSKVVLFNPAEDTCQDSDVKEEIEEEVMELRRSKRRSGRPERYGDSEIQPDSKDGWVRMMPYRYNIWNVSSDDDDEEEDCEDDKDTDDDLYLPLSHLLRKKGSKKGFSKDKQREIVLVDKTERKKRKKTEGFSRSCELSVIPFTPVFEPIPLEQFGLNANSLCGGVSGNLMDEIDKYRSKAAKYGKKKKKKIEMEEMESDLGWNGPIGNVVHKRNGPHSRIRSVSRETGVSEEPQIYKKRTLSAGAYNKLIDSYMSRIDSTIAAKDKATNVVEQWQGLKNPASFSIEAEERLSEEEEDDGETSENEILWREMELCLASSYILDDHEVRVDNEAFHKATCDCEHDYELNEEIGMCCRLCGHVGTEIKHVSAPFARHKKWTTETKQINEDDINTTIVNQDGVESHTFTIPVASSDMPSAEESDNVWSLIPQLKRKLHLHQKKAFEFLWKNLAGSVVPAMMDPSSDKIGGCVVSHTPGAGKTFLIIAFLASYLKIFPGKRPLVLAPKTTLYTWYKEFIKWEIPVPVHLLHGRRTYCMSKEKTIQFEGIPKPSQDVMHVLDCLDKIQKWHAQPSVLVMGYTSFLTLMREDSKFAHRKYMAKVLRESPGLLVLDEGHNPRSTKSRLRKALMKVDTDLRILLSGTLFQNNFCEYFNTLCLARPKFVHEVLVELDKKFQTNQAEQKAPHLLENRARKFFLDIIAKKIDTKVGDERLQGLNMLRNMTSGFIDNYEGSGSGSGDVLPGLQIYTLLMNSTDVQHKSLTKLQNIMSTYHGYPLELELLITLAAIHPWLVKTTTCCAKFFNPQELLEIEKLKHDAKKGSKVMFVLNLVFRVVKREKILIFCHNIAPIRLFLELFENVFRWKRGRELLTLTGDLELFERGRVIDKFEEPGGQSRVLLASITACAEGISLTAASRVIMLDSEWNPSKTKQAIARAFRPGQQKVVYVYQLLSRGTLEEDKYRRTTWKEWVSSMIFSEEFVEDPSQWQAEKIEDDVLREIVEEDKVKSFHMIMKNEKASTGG

SHH1-3xHA (Arabidopsis) = biological target: T3, SHH1-3xHA (Arabidopsis) (UniProt Q9XI47); assay: as above
T3 sequence: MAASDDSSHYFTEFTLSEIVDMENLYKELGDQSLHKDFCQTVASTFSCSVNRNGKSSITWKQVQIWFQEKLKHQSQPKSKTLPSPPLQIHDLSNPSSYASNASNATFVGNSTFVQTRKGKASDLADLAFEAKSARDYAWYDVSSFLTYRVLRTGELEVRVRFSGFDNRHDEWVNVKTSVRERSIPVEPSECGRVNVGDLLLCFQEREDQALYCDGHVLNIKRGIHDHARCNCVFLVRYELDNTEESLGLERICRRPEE

[1] = biological target: T4, CLSY3-3xF-BLRP (Arabidopsis) (UniProt F4I8S3); assay: co-IP; streptavidin beads (M-280 Dynabeads) capture CLSY3-3xF-BLRP from flower extracts of F1 plants crossed to NRPD1-3xF WT or CYC-AAAA; anti-FLAG western blot; dilution series of the WT co-IP
T4 sequence (chain, biotin on the Biotin Ligase Recognition Peptide): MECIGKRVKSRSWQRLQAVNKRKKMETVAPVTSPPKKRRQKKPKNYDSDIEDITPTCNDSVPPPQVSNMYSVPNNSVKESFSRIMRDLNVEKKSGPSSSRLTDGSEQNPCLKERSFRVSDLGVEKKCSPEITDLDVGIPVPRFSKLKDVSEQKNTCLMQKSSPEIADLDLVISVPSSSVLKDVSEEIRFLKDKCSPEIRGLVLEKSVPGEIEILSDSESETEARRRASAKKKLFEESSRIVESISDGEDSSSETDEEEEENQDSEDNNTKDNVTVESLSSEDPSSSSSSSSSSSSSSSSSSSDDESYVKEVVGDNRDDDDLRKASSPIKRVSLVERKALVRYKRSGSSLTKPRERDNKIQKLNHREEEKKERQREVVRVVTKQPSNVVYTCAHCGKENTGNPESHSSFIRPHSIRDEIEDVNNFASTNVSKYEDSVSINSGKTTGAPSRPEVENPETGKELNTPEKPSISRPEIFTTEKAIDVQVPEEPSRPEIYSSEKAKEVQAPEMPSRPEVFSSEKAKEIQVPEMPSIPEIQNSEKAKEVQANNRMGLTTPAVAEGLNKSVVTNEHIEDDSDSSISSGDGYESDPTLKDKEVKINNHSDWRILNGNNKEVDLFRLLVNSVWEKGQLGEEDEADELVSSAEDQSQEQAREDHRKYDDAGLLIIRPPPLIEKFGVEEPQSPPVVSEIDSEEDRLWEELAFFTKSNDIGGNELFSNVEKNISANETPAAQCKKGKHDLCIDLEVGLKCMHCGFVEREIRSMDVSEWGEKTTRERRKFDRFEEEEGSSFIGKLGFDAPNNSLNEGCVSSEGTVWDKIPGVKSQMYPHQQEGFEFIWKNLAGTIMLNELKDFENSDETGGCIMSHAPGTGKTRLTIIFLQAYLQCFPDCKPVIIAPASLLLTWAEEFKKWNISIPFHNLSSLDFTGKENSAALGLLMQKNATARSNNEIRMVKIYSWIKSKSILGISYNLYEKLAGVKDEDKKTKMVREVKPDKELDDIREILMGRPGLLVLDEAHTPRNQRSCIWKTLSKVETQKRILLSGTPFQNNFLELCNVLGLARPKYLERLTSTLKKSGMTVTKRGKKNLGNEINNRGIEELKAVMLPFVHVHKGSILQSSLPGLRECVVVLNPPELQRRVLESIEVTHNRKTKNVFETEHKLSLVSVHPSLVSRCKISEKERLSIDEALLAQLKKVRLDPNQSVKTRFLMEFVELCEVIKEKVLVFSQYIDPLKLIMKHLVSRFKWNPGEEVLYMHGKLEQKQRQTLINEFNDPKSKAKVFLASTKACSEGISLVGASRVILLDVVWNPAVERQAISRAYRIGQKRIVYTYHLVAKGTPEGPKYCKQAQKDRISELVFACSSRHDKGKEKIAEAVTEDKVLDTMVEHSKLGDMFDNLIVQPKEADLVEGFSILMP

Measured: binding

B1: NRPD1-3xFWT (protein, UniProt Q9LQ02 1-1453)
chain: MEDDCEELQVPVGTLTSIGFSISNNNDRDKMSVLEVEAPNQVTDSRLGLPNPDSVCRTCGSKDRKVCEGHFGVINFAYSIINPYFLKEVAALLNKICPGCKYIRKKQFQITEDQPERCRYCTLNTGYPLMKFRVTTKEVFRRSGIVVEVNEESLMKLKKRGVLTLPPDYWSFLPQDSNIDESCLKPTRRIITHAQVYALLLGIDQRLIKKDIPMFNSLGLTSFPVTPNGYRVTEIVHQFNGARLIFDERTRIYKKLVGFEGNTLELSSRVMECMQYSRLFSETVSSSKDSANPYQKKSDTPKLCGLRFMKDVLLGKRSDHTFRTVVVGDPSLKLNEIGIPESIAKRLQVSEHLNQCNKERLVTSFVPTLLDNKEMHVRRGDRLVAIQVNDLQTGDKIFRSLMDGDTVLMNRPPSIHQHSLIAMTVRILPTTSVVSLNPICCLPFRGDFDGDCLHGYVPQSIQAKVELDELVALDKQLINRQNGRNLLSLGQDSLTAAYLVNVEKNCYLNRAQMQQLQMYCPFQLPPPAIIKASPSSTEPQWTGMQLFGMLFPPGFDYTYPLNNVVVSNGELLSFSEGSAWLRDGEGNFIERLLKHDKGKVLDIIYSAQEMLSQWLLMRGLSVSLADLYLSSDLQSRKNLTEEISYGLREAEQVCNKQQLMVESWRDFLAVNGEDKEEDSVSDLARFCYERQKSATLSELAVSAFKDAYRDVQALAYRYGDQSNSFLIMSKAGSKGNIGKLVQHSMCIGLQNSAVSLSFGFPRELTCAAWNDPNSPLRGAKGKDSTTTESYVPYGVIENSFLTGLNPLESFVHSVTSRDSSFSGNADLPGTLSRRLMFFMRDIYAAYDGTVRNSFGNQLVQFTYETDGPVEDITGEALGSLSACALSEAAYSALDQPISLLETSPLLNLKNVLECGSKKGQREQTMSLYLSEYLSKKKHGFEYGSLEIKNHLEKLSFSEIVSTSMIIFSPSSNTKVPLSPWVCHFHISEKVLKRKQLSAESVVSSLNEQYKSRNRELKLDIVDLDIQNTNHCSSDDQAMKDDNVCITVTVVEASKHSVLELDAIRLVLIPFLLDSPVKGDQGIKKVNILWTDRPKAPKRNGNHLAGELYLKVTMYGDRGKRNCWTALLETCLPIMDMIDWGRSHPDNIRQCCSVYGIDAGRSIFVANLESAVSDTGKEILREHLLLVADSLSVTGEFVALNAKGWSKQRQVESTPAPFTQACFSSPSQCFLKAAKEGVRDDLQGSIDALAWGKVPGFGTGDQFEIIISPKVHGFTTPVDVYDLLSSTKTMRRTNSAPKSDKATVQPFGLLHSAFLKDIKVLDGKGIPMSLLRTIFTWKNIELLSQSLKRILHSYEINELLNERDEGLVKMVLQLHPNSVEKIGPGVKGIRVAKSKHGDSCCFEVVRIDGTFEDFSYHKCVLGATKIIAPKKMNFYKSKYLKNGTLESGGFSENP
binds: all assays above
